Data source: PubChem BioAssay AID652259 (Drosophila RNAi Screening Center, 2013)
The deposit covers about 22,000 reagents; below is an unselected part of those with a known target gene and a result. Of all reagents, 233 (1.1%) were called active. 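Light values are raw, unnormalised plate reads; the ratio scores behind the reporter calls were not deposited.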 Names joined by + are all predicted targets of the reagent. No sequences are given here. Not stated in the record: the amount of reagent, the time to read-out, the dose of the treatment.

- Purpose: 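Identify new Wingless signalling regulators in fly cells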 (primary screen)
- Cells: Drosophila clone 8 imaginal disc epithelial cells
- Reagent: long dsRNA against Drosophila genes
- Conditions: pathway stimulated by co-transfected Wingless expression plasmid
- Measurement: 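Firefly luciferase from a tcf-site Wingless reporter, measured alongside co-transfected Renilla luciferase that tracks transfection; pathway stimulated by a Wingless plasmid; the firefly-to-Renilla ratio is not deposited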
- Direction: firefly reporter light: higher = more Wg reporter light, before normalisation; Renilla control light: higher = more transfected or surviving cells
- Rule for the call: 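Strong candidates differ from their plate mean by at least two out of four per-plate statistical tests; weak candidates meet just one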
- Calls: active = candidate regulator (raises or lowers reporter); inactive = not a candidate

| gene | dsRNA | reporter change call, replicate 1 | firefly reporter light, replicate 1 | firefly reporter light, replicate 2 | Renilla control light, replicate 1 | Renilla control light, replicate 2 | activity call |
| --- | --- | --- | --- | --- | --- | --- | --- |
| CG33969 | DRSC11777 | – | 11881 | – | 4466 | – | inactive |
| SCCRO4 (Squamous cell carcinoma-related oncogene 4) | DRSC10671 | – | 15392 | – | 6624 | – | inactive |
| Rcd5 (Reduction in Cnn dots 5) | DRSC08180 | – | 5274 | – | 1121 | – | inactive |
| lt (light) | DRSC03759 | – | 2528 | 5990 | 816 | 2424 | inactive |
| Gabat (gamma-aminobutyric acid transaminase) | DRSC10846 | – | 12656 | – | 2744 | – | inactive |
| CG42676 | DRSC08227 | – | 24484 | – | 3813 | – | inactive |
| CG42676 | DRSC08392 | – | 4554 | – | 2112 | – | inactive |
| su(f) (suppressor of forked) | DRSC20907 | – | 11261 | – | 9235 | – | inactive |
| CG10286 | DRSC12520 | – | 4432 | – | 1725 | – | inactive |
| CG4598 | DRSC02763 | – | 2656 | 3778 | 756 | 1933 | inactive |
| CG32718 | DRSC17538 | – | 2115 | – | 1274 | – | inactive |
| mRpL27 (mitochondrial ribosomal protein L27) | DRSC22568 | – | 6.11e5 | 7.01e5 | 2.10e5 | 1.43e5 | inactive |
| Ugt37A3 (UDP-glycosyltransferase family 37 member A3) | DRSC15937 | – | 21888 | – | 6993 | – | inactive |
| Epg5 (ectopic P-granules autophagy protein 5) | DRSC14778 | – | 16995 | – | 3553 | – | inactive |
| Hpf1 (Histone PARylation factor 1) | DRSC12202 | – | 7442 | – | 2560 | – | inactive |
| park + Targ3 | DRSC11617 | – | 9804 | – | 4121 | – | inactive |
| CG12728 | DRSC17883 | – | 2364 | 4472 | 760 | 1840 | inactive |
| RpL7A (Ribosomal protein L7A) | DRSC18709 | – | 23463 | – | 6725 | – | inactive |
| CG17187 | DRSC15181 | – | 13120 | – | 3944 | – | inactive |
| CG31810 | DRSC01560 | – | 18100 | – | 8528 | – | inactive |
| BBS4 (Bardet-Biedl syndrome 4) | DRSC06352 | – | 5785 | – | 1517 | – | inactive |
| fred (friend of echinoid) | DRSC00349 | – | 3493 | 11627 | 1526 | 3113 | inactive |
| fred (friend of echinoid) | DRSC00599 | – | 3885 | 10835 | 1584 | 4281 | inactive |
| fred (friend of echinoid) | DRSC00601 | – | 2164 | 4576 | 1032 | 1859 | inactive |
| fred (friend of echinoid) | DRSC00602 | – | 2772 | 8129 | 1235 | 2976 | inactive |
| fred (friend of echinoid) | DRSC21906 | – | 5.99e5 | 4.45e5 | 2.23e5 | 2.12e5 | inactive |
| CG34304 (retired record) | DRSC12810 | – | 3609 | – | 1572 | – | inactive |
| CG12343 | DRSC06135 | – | 2284 | 5225 | 629 | 1894 | inactive |
| CG15172 | DRSC02473 | – | 2496 | 6663 | 785 | 3012 | inactive |
| beag | DRSC15296 | – | 8704 | – | 2502 | – | inactive |
| r (rudimentary) | DRSC19813 | – | 20288 | – | 8616 | – | inactive |
| r (rudimentary) | DRSC19814 | – | 18752 | – | 7604 | – | inactive |
| Jupiter | DRSC15204 | – | 5580 | – | 1922 | – | inactive |
| Jupiter | DRSC15205 | – | 18432 | – | 4176 | – | inactive |
| Jupiter | DRSC15389 | – | 16288 | – | 3661 | – | inactive |

Not a retest: entries from further up.
| gene | dsRNA | reporter change call, replicate 1 | firefly reporter light, replicate 1 | firefly reporter light, replicate 2 | Renilla control light, replicate 1 | Renilla control light, replicate 2 | activity call |
| --- | --- | --- | --- | --- | --- | --- | --- |
| Epg5 (ectopic P-granules autophagy protein 5) | DRSC14778 | – | 16995 | – | 3553 | – | inactive |
| Hpf1 (Histone PARylation factor 1) | DRSC12202 | – | 7442 | – | 2560 | – | inactive |
| park + Targ3 | DRSC11617 | – | 9804 | – | 4121 | – | inactive |
| CG12728 | DRSC17883 | – | 2364 | 4472 | 760 | 1840 | inactive |
| RpL7A (Ribosomal protein L7A) | DRSC18709 | – | 23463 | – | 6725 | – | inactive |
| CG17187 | DRSC15181 | – | 13120 | – | 3944 | – | inactive |
| CG31810 | DRSC01560 | – | 18100 | – | 8528 | – | inactive |
| BBS4 (Bardet-Biedl syndrome 4) | DRSC06352 | – | 5785 | – | 1517 | – | inactive |
| fred (friend of echinoid) | DRSC00349 | – | 3493 | 11627 | 1526 | 3113 | inactive |
| fred (friend of echinoid) | DRSC00599 | – | 3885 | 10835 | 1584 | 4281 | inactive |

The listing continues:
| gene | dsRNA | reporter change call, replicate 1 | firefly reporter light, replicate 1 | firefly reporter light, replicate 2 | Renilla control light, replicate 1 | Renilla control light, replicate 2 | activity call |
| --- | --- | --- | --- | --- | --- | --- | --- |
| RpS28a (Ribosomal protein S28a) | DRSC15064 | – | 8422 | – | 3849 | – | inactive |
| CG10000 | DRSC14170 | – | 7637 | – | 2438 | – | inactive |
| CG7133 | DRSC11798 | – | 7500 | – | 3216 | – | inactive |
| Poc1 (Proteome of centrioles 1) | DRSC09713 | – | 2728 | – | 1445 | – | inactive |
| Cad74A (Cadherin 74A) | DRSC10636 | – | 7562 | – | 3045 | – | inactive |
| beta-Man (beta-Mannosidase) | DRSC12208 | – | 9836 | – | 3031 | – | inactive |
| beta-Man (beta-Mannosidase) | DRSC12209 | – | 18023 | – | 5462 | – | inactive |
| Cpr49Af (Cuticular protein 49Af) | DRSC07202 | – | 6753 | – | 2740 | – | inactive |
| CG14692 | DRSC14915 | – | 16376 | – | 4055 | – | inactive |
| Mrtf (Myocardin-related transcription factor) | DRSC08263 | – | 1986 | – | 823 | – | inactive |
| Mrtf (Myocardin-related transcription factor) | DRSC08410 | – | 5328 | – | 1271 | – | inactive |
| Mrtf (Myocardin-related transcription factor) | DRSC08411 | – | 7200 | – | 2164 | – | inactive |
| CG15258 | DRSC02478 | – | 2801 | 5296 | 1328 | 2276 | inactive |
| CG1172 | DRSC12182 | – | 20089 | – | 7059 | – | inactive |
| CG1172 | DRSC21954 | – | 7.68e5 | 7.71e5 | 3.27e5 | 3.19e5 | inactive |
| Paf-AHalpha (Platelet-activating factor acetylhydrolase alpha) | DRSC20267 | – | 17914 | – | 7940 | – | inactive |
| ATPsynD (ATP synthase, subunit D) | DRSC14093 | – | 12385 | – | 3958 | – | inactive |
| CG46301 | DRSC01916 | – | 4289 | 7780 | 1400 | 3572 | inactive |
| dlt (discs lost) | DRSC08705 | – | 3824 | – | 2450 | – | inactive |
| Trf4-1 (Topoisomerase related function 4-1) | DRSC17775 | – | 25800 | – | 13578 | – | inactive |
| Tsp42Eo (Tetraspanin 42Eo) | DRSC06184 | – | 2768 | 4837 | 728 | 2554 | inactive |
| L2HGDH (L-2-hydroxyglutarate dehydrogenase) | DRSC02082 | – | 9447 | – | 2646 | – | inactive |
| Taf7 (TBP-associated factor 7) | DRSC15445 | Wg reporter activity raised | 34483 | – | 2956 | – | active |
| CG17928 | DRSC02644 | – | 2848 | 6352 | 1229 | 3303 | inactive |
| GatC + PolG2 | DRSC03312 | – | 5900 | – | 2713 | – | inactive |
| CG13872 | DRSC06431 | – | 6408 | – | 2362 | – | inactive |
| lbe (ladybird early) | DRSC16985 | – | 39370 | – | 7077 | – | inactive |
| CG15676 | DRSC04267 | – | 2455 | 4523 | 881 | 1944 | inactive |
| ine (inebriated) | DRSC00822 | – | 8964 | – | 2992 | – | inactive |
| Rh4 (Rhodopsin 4) | DRSC11268 | – | 11376 | 8.47e5 | 4481 | 2.95e5 | inactive |
| Stlk (Ste20-like kinase) | DRSC22687 | – | 4.22e5 | 4.10e5 | 1.54e5 | 1.32e5 | inactive |
| wrd (well-rounded) | DRSC16337 | – | 11976 | – | 626 | – | inactive |
| wrd (well-rounded) | DRSC16344 | – | 12130 | – | 2230 | – | inactive |
| CG33143 | DRSC04151 | – | 4053 | 7388 | 963 | 3491 | inactive |
| CG33143 | DRSC04454 | – | 2368 | 6601 | 472 | 1900 | inactive |
| CG14805 | DRSC18554 | – | 18866 | – | 13122 | – | inactive |
| Snx27 (Sorting nexin 27) | DRSC17786 | – | 26964 | – | 12589 | – | inactive |
| Snx27 (Sorting nexin 27) | DRSC18282 | – | 24965 | – | 9585 | – | inactive |
| Snx27 (Sorting nexin 27) | DRSC18284 | – | 16701 | – | 8672 | – | inactive |
